## Library screening results

Sequences of proteins named here, by UniProt entry; tags and fusion partners are left off.
UniProt E9BF75, entry or part of it: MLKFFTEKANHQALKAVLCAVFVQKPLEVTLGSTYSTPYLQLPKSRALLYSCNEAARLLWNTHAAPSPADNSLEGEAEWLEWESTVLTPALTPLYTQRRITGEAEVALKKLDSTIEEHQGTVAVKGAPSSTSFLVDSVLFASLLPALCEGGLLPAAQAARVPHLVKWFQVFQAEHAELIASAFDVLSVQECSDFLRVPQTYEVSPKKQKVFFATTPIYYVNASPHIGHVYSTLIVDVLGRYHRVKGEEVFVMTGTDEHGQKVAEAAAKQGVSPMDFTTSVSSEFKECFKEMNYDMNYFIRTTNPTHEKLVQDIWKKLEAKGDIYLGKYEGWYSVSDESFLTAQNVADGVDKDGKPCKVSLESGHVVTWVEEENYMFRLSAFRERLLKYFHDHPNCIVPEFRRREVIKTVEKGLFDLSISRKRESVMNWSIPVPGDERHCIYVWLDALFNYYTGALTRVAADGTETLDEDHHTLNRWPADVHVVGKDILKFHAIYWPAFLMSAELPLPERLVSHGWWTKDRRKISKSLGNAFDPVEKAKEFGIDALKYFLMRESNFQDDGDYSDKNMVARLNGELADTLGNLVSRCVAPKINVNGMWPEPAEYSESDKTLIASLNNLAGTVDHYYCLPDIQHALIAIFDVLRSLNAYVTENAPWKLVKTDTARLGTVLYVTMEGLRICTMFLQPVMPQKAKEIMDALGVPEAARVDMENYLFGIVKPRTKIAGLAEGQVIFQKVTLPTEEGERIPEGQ

Measurements from “University of Dundee, Small-Polar-MMV Screening Library” (2021), ChEMBL document CHEMBL3988442.

Results are percentages, as filed.
How 0% and 100% were set is not recorded. Most values in the screen are low, and negative values occur.
This is an unselected part of the compounds tested.
A dash means the value is not listed here; it may have been measured.

Mtb heat-shock: 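Assay on Mycobacterium tuberculosis, filed only as a heat shock assay from Cornell; the read-out is not stated. The concentration is filed as 10 mM, unlikely as a test dose, so the dose is not known. Higher reads as stronger inhibition (inferred: compounds with an IC50 in retests scored well above the rest). Size under these conditions: about 69,000 compounds, about 930 of them at 50% or above in at least one test.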
LdMetRS: 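Primary screen of methionyl-tRNA synthetase; the read-out is not stated. Target: Methionyl-tRNA synthetase (putative), Leishmania donovani (UniProt E9BF75). The test concentration is not given. Values are per cent inhibition. Of about 68,000 compounds tested this way, about 24 (0.035%) reached 50% or more in at least one test.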
Mtb growth Cornell: 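Whole-cell assay for inhibitors of Mycobacterium tuberculosis growth, labelled Cornell in the record; the read-out is not stated. The concentration is filed as 10 mM, unlikely as a test dose, so the dose is not known. The record gives no direction; compounds strong in two other growth screens of this library score well above the rest, so higher reads as stronger inhibition. Of about 53,000 compounds tested this way, about 900 (1.7%) reached 50% or more in at least one test.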

Compound	Mtb heat-shock	LdMetRS	Mtb growth Cornell
COC1CCN(C(=O)Cn2cccc(C(F)(F)F)c2=O)C1 (centres undefined)	-9.326	13.59	-0.4759
c1cc(COC[C@@]23CCC[C@@H]2CN(C2CCOCC2)C3)ccn1	-	19.23	-
Cc1cnn(C2CN(CC(=O)NCCCc3ccccc3)C2)c1	-5.665	14.86	-21.21
CCc1nc(N2CCC3(CCC(=O)N(CCCO)C3)CC2)no1	-23.68	-5.995	-4.679
O=C(O)C(F)(F)F.[H][C@@]12CCN(C(=O)c3cnn(C)c3)[C@@]1([H])CCN2c1ncc(F)cn1	-13.9	-	1.523
O=C(CCc1ccccc1)N1CCCC(c2n[nH]c3nccnc23)C1 (centres undefined)	-5.924	13.54	15.21
CCOCC1CCN(C(=O)c2sc(C)cc2OC(F)F)CC1	-17.3	8.579	-0.1348
CC(C)CCNc1c(C#N)c2c(c3nncn13)CN(C)CC2	-2.353	10.5	-9.842
CCOCCN1CCN(Cc2csc(-c3cnn(C)c3)n2)CC1	2.805	8.197	-
COc1ccc(CNC2CCN(CCc3ccncc3)CC2)cc1O	3.004	14.29	16.04
COCCO[C@@H]1CCN(C(=O)c2ccc[nH]2)[C@H]1Cc1cnn(C)c1	-4.145	18.68	6.808
CC(NC(=O)NCc1ccccn1)c1cccs1 (centres undefined)	-17.12	19.2	1.311
COc1ccc([C@@H]2CN(c3cc(OC)ncn3)C[C@H]2N(C)C)cc1	23.72	1.761	-14.2
CCN1CCCC(NC(=O)CCn2c(C(F)F)cc3cccnc32)C1 (centres undefined)	-11.41	11.61	6.84
COc1cccc(C2CC(=O)Nc3c2cnn3C(C)(C)C)c1 (centres undefined)	-6.247	17.43	16.62
Cc1ccc2nnc(C(=O)NCC3CCCC3)nc2c1	103.3	8.947	99.7
Cc1ccc(C2(O)CCN(C(=O)CCn3ccc(=O)[nH]c3=O)CC2)nc1	23.6	3.81	8.573
CS(=O)(=O)c1ccc2c(c1)N(C(=O)Cc1ccc(F)cc1)CCC2	-4.91	4.416	10.1
CC(C)CCc1n[nH]c(C(=O)O)c1I	-31.74	18.77	42.63
CC(=O)NCC1CCN(C(=O)NCc2ccc3c(c2)OCCO3)CC1	-4.066	8.993	5.405
CS(=O)(=O)N[C@@H]1CCO[C@]2(CCN(CC3CCOCC3)C2)C1.O=C(O)C(F)(F)F	-11.95	-	-1.837
CN(C)CCN1CCOCC2(CCN(Cc3ccc[nH]3)CC2)C1	-	9.42	-
CCc1ncnc2c1CCN(C(=O)c1cccn1C)CC2	-11.42	13.74	-15.89
[H][C@@]12CS(=O)(=O)C[C@]1([H])N(Cc1ccc(CC)cc1)CCN2C(=O)C(C)C	19.27	-	-37.23
Fc1cnc(N2CCCC3(CCN(Cc4cccs4)C3)C2)nc1 (centres undefined)	-	4.667	-
COc1ccc2c(c1)C(=O)NC1(CC2)CCN(Cc2ccc(F)cc2)C1 (centres undefined)	15.8	5.901	-2.692
Cn1cc(CN2CCC(F)(F)C3(CCN(c4ncccn4)C3)C2)cn1.O=C(O)C(F)(F)F.O=C(O)C(F)(F)F (centres undefined)	-18.65	-	-
Cc1ccc(CN(CCN(C)C)C(=O)Cc2cn3ccccc3n2)o1	-11.22	12.32	14.56
Cn1ncc(C(=O)O)c1C(=O)Nc1nc2ccc(Br)cc2s1	-12.98	3.904	-24.28
Cc1cnc(NCC(C)(C)N2CCCCC2)nc1	-0.7359	13.4	-
O=C(C1CCOCC1)N1CC[C@@H](O)[C@@H]1Cc1ccccc1	-1.581	-66.35	20.36
[H][C@]12CCCCN1CCC[C@H]2CCC(=O)N1Cc2nc(C)[nH]c(=O)c2C1	-20.35	-	-
Cc1oc(-c2nc(C#N)c(NC(C)C)o2)cc1S(=O)(=O)N1CCCC1	-1.286	10	20.22
O=C(O)C(F)(F)F.O=C(O)C(F)(F)F.[H][C@@]12OCCN(Cc3c(C)noc3C)[C@@]1([H])CC[C@H]2Oc1ncccc1F	4.037	-	9.263
CSCC[C@@H](CO)NC(=O)c1ccc2nc(NS(C)(=O)=O)sc2c1	3.436	10.73	13.43
CCCC(=O)N1CCC(c2cc3n(n2)[C@@H](C(F)(F)F)C[C@@H](C)N3)CC1	-13.51	12.3	24.17
CC(C)(C)C(=O)c1ccsc1NC(=O)CCNC(=O)c1ccco1	10.89	0.7692	34.84
Cc1cc(C)nc(N2CCC(C(=O)Nc3ncc[nH]3)CC2)n1	9.033	12.59	40.05
OCCc1ncnn1Cc1cccc(Cl)c1	-21.08	-1.401	-
COc1ccc(C)cc1C(C)NCc1cnnn1C (centres undefined)	-21.91	10.64	8.957
Cc1nc([C@@H]2C[C@@H]3CCN(C(=O)c4ccsc4)C[C@H]3O2)no1	-	0.6536	-
COc1ccc(Oc2ncccc2NC(=O)N2CC[C@H](O)C2)cc1	-5.111	13.77	-14.18
O=C(O)C(F)(F)F.O=C(O)C(F)(F)F.O=C(O)C(F)(F)F.[H][C@@]12COC[C@]1(CN(C)C)CN(Cc1ccccn1)C2	-12.4	-	5.331
CCc1cc(NCCNc2cccnc2)n2nccc2n1	0.7035	16.3	-
COc1ccc(CN2CCC[C@H]2c2nc(-c3cncnc3N)no2)cc1	-14.42	1.695	-43.56
Cc1sc(-c2ccco2)nc1C(=O)NCC1CCOC1 (centres undefined)	19.88	9.429	13.48
CCn1cc2c(n1)CN(Cc1ccncc1)CC2COCC1CC1.O=C(O)C(F)(F)F.O=C(O)C(F)(F)F (centres undefined)	-4.247	-	-
CN1CCN(C2CCN(C(=O)CCC3CCCC3)CC2)CC1	-	6.383	-
O=C([C@@H]1C[C@@H]2CCN(CCc3ccccc3)C[C@H]2O1)N1CCCC1	-	7.317	-
O=C(Cc1cccs1)NCc1ccnc(OC2CCOCC2)c1	-17.17	21.51	1.803
c1cc(CN2CCC3(CC2)CC(N2CCCC2)CO3)co1 (centres undefined)	-	12.22	-
CC(C)c1nccn1C(C)C(=O)NC1Cc2ccccc2C1 (centres undefined)	17.77	10.13	31.38
Cc1cc(NCC2(O)CCOCC2)c2ccccc2n1	6.34	14.25	23.95
COc1cccc(CN2CCC3(CC2)CCN(c2ncc(C)cn2)C3)c1	-	12.8	-
N#Cc1ccc(C(=O)N2CC[C@H]3[C@@H]2CCC(=O)N3c2cccnc2)cc1	-	13.13	-
CN(C)CCN1CCC2(CCCN(C(=O)C3CCC3)C2)CC1	-	-2.757	-
CSC(C)C(=O)N1CCN(CCO)CC1 (centres undefined)	17.18	1.449	6.694
c1cnnc(NCC2CN(Cc3ccon3)CCO2)c1 (centres undefined)	-13.96	9.036	-
O=c1c(-c2ccnc(N3CCC[C@H]3CO)n2)cnc2sccn12	-9.114	12.38	4.281
COc1cccc(NC(=O)CN2CCN(S(C)(=O)=O)CC2)c1	5.938	7.914	13.93
CS(=O)(=O)N1C[C@@H]2COC[C@@H](CC(=O)N3CCCO3)[C@@H]2C1	-	8.029	-
CC(C)c1nc(C2CCCN(C(=O)CS(=O)(=O)C(C)C)C2)no1 (centres undefined)	11.05	5.163	14.55
CCN1CCCC1CNC(=O)Cc1c(-c2ccc(Cl)cc2)n[nH]c1C (centres undefined)	-10.89	11.8	11.06
Cc1nccn1CCC1CCN(C2CCC3(CCNCC3)CC2)CC1	-7.747	6.527	-

Some entries from above, unchanged:

- CCCC(=O)N1CCC(c2cc3n(n2)[C@@H](C(F)(F)F)C[C@@H](C)N3)CC1 | Mtb heat-shock: -13.51%; LdMetRS: 12.3%; Mtb growth Cornell: 24.17%
- COc1cccc(CN2CCC3(CC2)CCN(c2ncc(C)cn2)C3)c1 | LdMetRS: 12.8%
- c1cc(CN2CCC3(CC2)CC(N2CCCC2)CO3)co1 (centres undefined) | LdMetRS: 12.22%
- O=C(Cc1cccs1)NCc1ccnc(OC2CCOCC2)c1 | Mtb heat-shock: -17.17%; LdMetRS: 21.51%; Mtb growth Cornell: 1.803%